According to US20220177484A1, “MACROCYCLES WITH ANTIOXIDANT AND NEUROPROTECTIVE ACTIVITIES” (INSTITUTO BIOMAR, S.A, priority 2019, published 2022):
Some compounds share one wording; it may come from a single statement.

Legend:
[1] = Interference with the H2O2 determination method (H2O2 mixed with compound)
C57BL6/J male mice = experiment: Open field test under normal conditions; assay type: in vivo; settings: once-daily 150 mg/kg intraperitoneal

Row | Structure (SMILES) | interference with the H2O2 determination method [1] | number of line crossings (open field) (C57BL6/J male mice; normal mice) | rearing in the central square (open field) (C57BL6/J male mice; normal mice) | time spent in central square of the arena (open field) (C57BL6/J male mice; normal mice (FIGS. 12 and 13))
1 | C=CC1(C)C=C(C)C2C3C(Oc4ccc(cc4)CC4(O)NC(=O)C5(OC45)C(=O)C31)C1C(C)CC(C)CC21C (stereo not drawn) [Compound I] | absence of such interference | increased | increase | increased
2 | C=C[C@@]1(C)C=C(C)C2C3[C@H](Oc4ccc(cc4)CC4C(=O)NC(=O)[C@H]4C(=O)[C@H]31)C1[C@@H](C)C[C@@H](C)C[C@@]21C (stereo partly drawn) [GKK1032, reference compound] | absence of such interference |  |  | 
3 | C=C[C@@H]1C=C(C)[C@H]2[C@@H]3[C@H](Oc4ccc(cc4)C[C@@]4(O)C=C(C(=O)N4)C(=O)[C@@H]13)[C@@H]1[C@@H](C)C[C@@H](C)C[C@]12C [Pyrrocidine A, reference compound] | absence of such interference |  |  | 
